The nature of this data set: general procedure: Fmoc solid-phase peptide synthesis; Rink Amide ChemMatrix resin (loading 0.44–0.48 mmol/g); HCTU/DIEA. As to conditions: whole synthesis, analytical UPLC-PDA; confirmed by UHPLC-Q-ToF MS, scale of the general procedure 0.165 mmol.
As for GKKPGGWKAK-NH2, the “final purity (method not given)” value came to 97%.

For GKKPGWWKAK-NH2, the “final purity (method not given)” value was found to be 98%.

Consider GKKPWGWKAK-NH2, for which the “final purity (method not given)” value is 98%. The result for GKKPWWWKAK-NH2 reads 99%; that for GKKWGGWKAK-NH2, 98%; that for GKKWGWWKAK-NH2, 98%. In the case of GKKWWGWKAK-NH2 it was 95%; in that of GKKWWWWKAK-NH2, 100%. In the case of GRRPLLLRAR-NH2 it was 97%. Consider GRRPWWWRAR-NH2, for which the “final purity (method not given)” value stood at 100%.

In the case of GRRWWWWRAR-NH2, the “final purity (method not given)” value worked out at 100%.

The values are drawn from publication PMC7432809 (International Journal of Molecular Sciences, 2020).
